Results published in US5491074A, “Association peptides” (Affymax Technologies NV, priority 1993, dated 1996).
At least one peptide structure holds a part that was inferred or is arguable (an end, a ring closure or a residue). No end group written: not given here.

What was measured:
[1] = Dimer formation in 8M urea and 6M guanidine-HCl on P-4 columns; format: physicochemical
[2] = Dimer formation of peptides on Bio-Gel P-4 molecular sieve column (Example 1); format: physicochemical

YGGFLPPGGSKVILF [YGGFLPPGGSKVILF]
elution form on P-4 column ([1]; 6M guanidine-HCl): eluted as the dimers
elution form on P-4 column ([1]; up to 8M Urea): eluted as the dimers
Calculated Molecular Weight ([2]; 0.1 M NaCl (buffer A: 0.1M NaCl, 10 mM Tris, pH=7.5)): 1218
Calculated Molecular Weight ([2]; 1 M Ammonium Sulfate (buffer B: 10 mM Tris, pH=7.5)): 478
